Measured values taken from PMC5504347.
These are yes or no findings as the source states them, for the method shown. For part of these data: Binding seen in cells or lysates may run through a third protein. Some binding calls cover weakened binding; strength is not graded here. For part of these data: Where a sequence is shown, tags or fusion partners need not be part of it.

Amino acid sequences for entries named in this document (tags omitted). A change or cut given only in a name is not applied to a line headed by its entry. Chains listed by the source or under a name are the forms on record and can include a tag or linker.
UBE2D3 (E2 ubiquitin ligase) (P61077-2, form named): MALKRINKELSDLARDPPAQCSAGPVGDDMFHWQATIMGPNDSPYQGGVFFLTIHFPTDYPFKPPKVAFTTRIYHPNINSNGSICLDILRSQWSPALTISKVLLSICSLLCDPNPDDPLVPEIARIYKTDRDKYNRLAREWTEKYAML

Key:
[1] = target: T1, 3xFlag-ZNF598 (Zinc Finger Protein 598) (human) (UniProt Q86UK7); assay: co-IP; anti-Flag M2 antibody and protein G agarose on lysate of Flp-In T-REx 293 cells transiently transfected with 3xFlag-ZNF598 or empty vector; 0.3% CHAPS, 120 mM NaCl, RNase A 10 μg/ml; western blot
T1 sequence: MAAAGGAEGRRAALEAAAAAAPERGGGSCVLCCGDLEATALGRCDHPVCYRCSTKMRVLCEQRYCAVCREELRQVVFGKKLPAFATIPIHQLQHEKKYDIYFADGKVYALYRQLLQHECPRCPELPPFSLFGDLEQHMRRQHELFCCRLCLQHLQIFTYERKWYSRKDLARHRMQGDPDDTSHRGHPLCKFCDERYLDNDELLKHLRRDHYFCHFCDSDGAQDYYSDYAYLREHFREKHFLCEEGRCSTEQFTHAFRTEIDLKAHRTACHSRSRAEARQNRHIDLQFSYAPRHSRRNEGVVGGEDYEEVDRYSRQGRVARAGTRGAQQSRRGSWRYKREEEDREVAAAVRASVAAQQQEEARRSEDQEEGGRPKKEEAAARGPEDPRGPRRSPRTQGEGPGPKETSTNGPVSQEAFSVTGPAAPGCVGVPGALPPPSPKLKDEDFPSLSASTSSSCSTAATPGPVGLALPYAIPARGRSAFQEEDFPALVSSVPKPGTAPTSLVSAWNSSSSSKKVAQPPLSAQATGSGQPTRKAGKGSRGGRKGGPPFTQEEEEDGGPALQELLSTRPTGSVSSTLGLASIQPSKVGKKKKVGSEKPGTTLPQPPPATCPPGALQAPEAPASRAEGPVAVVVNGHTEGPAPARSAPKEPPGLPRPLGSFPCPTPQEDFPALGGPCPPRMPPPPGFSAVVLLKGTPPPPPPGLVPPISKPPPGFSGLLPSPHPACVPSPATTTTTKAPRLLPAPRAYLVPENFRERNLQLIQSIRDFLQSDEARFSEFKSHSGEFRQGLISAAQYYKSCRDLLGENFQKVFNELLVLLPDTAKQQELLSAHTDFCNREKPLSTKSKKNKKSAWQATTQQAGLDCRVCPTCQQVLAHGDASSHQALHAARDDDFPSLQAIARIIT

[2] = target: T2, ΔRING mutant (aa 81–904) of ZNF598 (human) (UniProt Q86UK7); assay: SEC; cell lysate on Superose 6 (24 ml) in 25 mM HEPES-KOH pH 7.4, 150 mM KCl, 75 mM KOAc, 2 mM MgCl2, 0.5% NP40; fractions analysed by blot
T2 sequence: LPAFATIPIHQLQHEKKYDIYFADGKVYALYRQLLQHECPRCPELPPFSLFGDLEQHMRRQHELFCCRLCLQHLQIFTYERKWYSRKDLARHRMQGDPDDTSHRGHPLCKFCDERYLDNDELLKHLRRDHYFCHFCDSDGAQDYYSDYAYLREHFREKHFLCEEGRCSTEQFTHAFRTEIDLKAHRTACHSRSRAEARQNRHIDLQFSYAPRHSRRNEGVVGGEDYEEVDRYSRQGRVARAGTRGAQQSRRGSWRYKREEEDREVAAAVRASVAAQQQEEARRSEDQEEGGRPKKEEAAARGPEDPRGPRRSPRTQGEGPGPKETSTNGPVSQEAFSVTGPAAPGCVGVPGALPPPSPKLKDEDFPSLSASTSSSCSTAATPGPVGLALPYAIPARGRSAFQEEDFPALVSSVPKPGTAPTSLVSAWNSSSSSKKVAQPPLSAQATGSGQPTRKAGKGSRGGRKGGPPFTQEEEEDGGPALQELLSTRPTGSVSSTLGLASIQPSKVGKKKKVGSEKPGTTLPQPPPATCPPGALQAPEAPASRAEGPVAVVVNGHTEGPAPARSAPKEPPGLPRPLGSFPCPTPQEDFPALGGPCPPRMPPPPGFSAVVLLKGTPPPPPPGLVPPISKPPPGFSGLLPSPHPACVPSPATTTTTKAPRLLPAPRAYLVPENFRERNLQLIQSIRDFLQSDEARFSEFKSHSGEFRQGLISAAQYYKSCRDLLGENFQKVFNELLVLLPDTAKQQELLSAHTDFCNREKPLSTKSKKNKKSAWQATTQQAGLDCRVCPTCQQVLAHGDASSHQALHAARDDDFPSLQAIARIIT

[3] = target: T1, 3xFlag-ZNF598 (Zinc Finger Protein 598) (human); assay: as above

“UBE2D3 (E2 ubiquitin ligase) (from UniProt P61077-2 1-148) (enzyme)” was tested, and the binding [1] was “binds”, the binding [2] was “no binding” and the binding [3] was “binds”.
